Laboratory results published in US20040180342A1, “Multimers of S. solfataricus single-stranded DNA-binding protein and methods of use thereof” (REGENTS OF THE UNIVERSITY OF CALIFORNIA, published 2004).
No constants are given. Whether binding was seen depends on the method and setting. Some binding calls cover weakened binding; strength is not graded here.

What was measured:
Details in all cases: remark: other sources report otherwise
[1] = target: T1, S. solfataricus ssDNA binding protein (SsoSSB protein) (Sulfolobus solfataricus), Q97W73; assay: analytical gel filtration (Superose 12 FPLC), self-association of the purified protein
T1 chain: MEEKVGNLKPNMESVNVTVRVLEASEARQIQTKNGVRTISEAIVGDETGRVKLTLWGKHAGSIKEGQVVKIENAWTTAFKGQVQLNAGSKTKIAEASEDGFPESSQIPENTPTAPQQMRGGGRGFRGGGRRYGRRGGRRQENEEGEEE

[2] = target: T1, S. solfataricus ssDNA binding protein …; assay: gel filtration, self-association (discussion of the results)
[3] = target: T1, S. solfataricus ssDNA binding protein …; assay: gel filtration, self-association

Measured: binding

B1: S. solfataricus ssDNA binding protein (SsoSSB protein), Q97W73 1-148 (protein)
chain: MEEKVGNLKPNMESVNVTVRVLEASEARQIQTKNGVRTISEAIVGDETGRVKLTLWGKHAGSIKEGQVVKIENAWTTAFKGQVQLNAGSKTKIAEASEDGFPESSQIPENTPTAPQQMRGGGRGFRGGGRRYGRRGGRRQENEEGEEE
binds: all assays above
